In paper PMC6073313, “Comparison of the Anion Inhibition Profiles of the α-CA Isoforms (SpiCA1, SpiCA2 and SpiCA3) from the Scleractinian Coral Stylophora pistillata” (International Journal of Molecular Sciences, 2018):

Biological target: T1, SpiCA3 (Stylophora pistillata, UniProt A0A1B0Y357)
T1 construct: gene CA3
T1 sequence (A0A1B0Y357 1-258): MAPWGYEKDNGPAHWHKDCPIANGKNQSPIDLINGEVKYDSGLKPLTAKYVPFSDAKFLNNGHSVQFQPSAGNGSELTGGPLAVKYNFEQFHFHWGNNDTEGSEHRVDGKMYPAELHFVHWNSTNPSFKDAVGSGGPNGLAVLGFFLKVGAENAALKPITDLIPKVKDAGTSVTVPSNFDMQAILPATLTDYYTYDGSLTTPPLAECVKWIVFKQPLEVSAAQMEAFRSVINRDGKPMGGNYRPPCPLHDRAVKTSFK
Assay: stopped-flow CO2 hydration, phenol red, Cheng-Prusoff
Assay type: biochemical

Structure (SMILES): CC(=O)Nc1nnc(S(N)(=O)=O)s1 [AAZ, 5-acetamido-1,3,4-thiadiazole-2-sulfonamide]
- Ki: 737 nM
